Source: the supplement of paper PMC10849652
The list shows a part of the results. Residues, ends and D or L forms follow the SMILES beside them. *: point of attachment. Cbz = O=C(OCc1ccccc1)*

Chains of the proteins cited; added tags and fusions are not shown. Lines headed by an entry give the natural chain unless they say otherwise; changes in a name come on top.
UniProt Q92990: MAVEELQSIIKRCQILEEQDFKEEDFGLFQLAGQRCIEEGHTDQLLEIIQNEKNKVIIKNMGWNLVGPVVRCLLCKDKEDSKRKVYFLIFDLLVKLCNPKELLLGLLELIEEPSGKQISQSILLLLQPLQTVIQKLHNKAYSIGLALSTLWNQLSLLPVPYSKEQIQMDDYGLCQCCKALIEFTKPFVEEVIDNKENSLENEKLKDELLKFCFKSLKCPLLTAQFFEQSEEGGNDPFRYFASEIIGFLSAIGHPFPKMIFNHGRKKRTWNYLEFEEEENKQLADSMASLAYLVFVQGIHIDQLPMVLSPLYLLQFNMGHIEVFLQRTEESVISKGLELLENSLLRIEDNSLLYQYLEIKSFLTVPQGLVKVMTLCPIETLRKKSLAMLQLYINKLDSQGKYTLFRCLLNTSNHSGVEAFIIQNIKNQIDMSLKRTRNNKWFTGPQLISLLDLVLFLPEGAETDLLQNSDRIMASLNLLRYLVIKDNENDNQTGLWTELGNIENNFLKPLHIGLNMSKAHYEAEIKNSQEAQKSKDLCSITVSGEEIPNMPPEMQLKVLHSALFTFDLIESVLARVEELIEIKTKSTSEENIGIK
UniProt P36959: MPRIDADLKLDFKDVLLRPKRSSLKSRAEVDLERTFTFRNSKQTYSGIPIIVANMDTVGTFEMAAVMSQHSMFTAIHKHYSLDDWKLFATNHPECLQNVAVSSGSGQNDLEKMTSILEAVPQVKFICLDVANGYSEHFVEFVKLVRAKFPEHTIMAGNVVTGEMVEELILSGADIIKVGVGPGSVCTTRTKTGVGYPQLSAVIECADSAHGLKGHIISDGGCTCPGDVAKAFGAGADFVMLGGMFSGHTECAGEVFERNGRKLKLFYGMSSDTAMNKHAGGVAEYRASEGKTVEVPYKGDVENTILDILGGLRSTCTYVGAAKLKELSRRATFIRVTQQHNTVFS
UniProt P17174: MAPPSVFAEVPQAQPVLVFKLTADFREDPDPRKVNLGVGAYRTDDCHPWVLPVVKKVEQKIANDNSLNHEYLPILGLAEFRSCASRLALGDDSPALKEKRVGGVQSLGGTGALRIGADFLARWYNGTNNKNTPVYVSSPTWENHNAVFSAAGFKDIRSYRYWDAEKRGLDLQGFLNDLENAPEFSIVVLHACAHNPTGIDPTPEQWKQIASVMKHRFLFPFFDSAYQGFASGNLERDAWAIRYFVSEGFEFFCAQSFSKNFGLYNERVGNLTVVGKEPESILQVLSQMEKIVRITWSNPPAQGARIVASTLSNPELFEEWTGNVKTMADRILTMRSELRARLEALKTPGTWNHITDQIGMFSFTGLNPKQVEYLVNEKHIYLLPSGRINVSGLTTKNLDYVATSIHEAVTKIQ
UniProt Q86SX6: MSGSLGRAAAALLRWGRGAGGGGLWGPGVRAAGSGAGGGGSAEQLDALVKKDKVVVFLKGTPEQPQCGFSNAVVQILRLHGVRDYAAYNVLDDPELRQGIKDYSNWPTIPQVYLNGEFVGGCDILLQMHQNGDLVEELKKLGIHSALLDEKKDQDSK
UniProt Q8IW92: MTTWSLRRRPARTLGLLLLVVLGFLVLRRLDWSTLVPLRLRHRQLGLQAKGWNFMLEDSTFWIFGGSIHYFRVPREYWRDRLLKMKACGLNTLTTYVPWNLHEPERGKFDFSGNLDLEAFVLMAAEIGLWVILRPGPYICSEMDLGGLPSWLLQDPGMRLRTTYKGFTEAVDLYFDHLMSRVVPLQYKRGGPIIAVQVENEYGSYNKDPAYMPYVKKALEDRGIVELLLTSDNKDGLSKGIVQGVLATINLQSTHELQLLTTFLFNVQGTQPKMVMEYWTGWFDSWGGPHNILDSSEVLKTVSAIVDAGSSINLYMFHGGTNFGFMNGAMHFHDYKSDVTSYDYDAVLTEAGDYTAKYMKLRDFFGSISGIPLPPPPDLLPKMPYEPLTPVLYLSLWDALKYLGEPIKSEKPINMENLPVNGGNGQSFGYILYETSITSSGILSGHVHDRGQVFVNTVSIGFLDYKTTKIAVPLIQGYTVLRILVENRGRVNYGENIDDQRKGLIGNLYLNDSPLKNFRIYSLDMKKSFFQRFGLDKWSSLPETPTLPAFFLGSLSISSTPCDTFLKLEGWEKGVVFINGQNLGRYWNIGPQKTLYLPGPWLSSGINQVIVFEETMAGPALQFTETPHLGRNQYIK
UniProt Q08379: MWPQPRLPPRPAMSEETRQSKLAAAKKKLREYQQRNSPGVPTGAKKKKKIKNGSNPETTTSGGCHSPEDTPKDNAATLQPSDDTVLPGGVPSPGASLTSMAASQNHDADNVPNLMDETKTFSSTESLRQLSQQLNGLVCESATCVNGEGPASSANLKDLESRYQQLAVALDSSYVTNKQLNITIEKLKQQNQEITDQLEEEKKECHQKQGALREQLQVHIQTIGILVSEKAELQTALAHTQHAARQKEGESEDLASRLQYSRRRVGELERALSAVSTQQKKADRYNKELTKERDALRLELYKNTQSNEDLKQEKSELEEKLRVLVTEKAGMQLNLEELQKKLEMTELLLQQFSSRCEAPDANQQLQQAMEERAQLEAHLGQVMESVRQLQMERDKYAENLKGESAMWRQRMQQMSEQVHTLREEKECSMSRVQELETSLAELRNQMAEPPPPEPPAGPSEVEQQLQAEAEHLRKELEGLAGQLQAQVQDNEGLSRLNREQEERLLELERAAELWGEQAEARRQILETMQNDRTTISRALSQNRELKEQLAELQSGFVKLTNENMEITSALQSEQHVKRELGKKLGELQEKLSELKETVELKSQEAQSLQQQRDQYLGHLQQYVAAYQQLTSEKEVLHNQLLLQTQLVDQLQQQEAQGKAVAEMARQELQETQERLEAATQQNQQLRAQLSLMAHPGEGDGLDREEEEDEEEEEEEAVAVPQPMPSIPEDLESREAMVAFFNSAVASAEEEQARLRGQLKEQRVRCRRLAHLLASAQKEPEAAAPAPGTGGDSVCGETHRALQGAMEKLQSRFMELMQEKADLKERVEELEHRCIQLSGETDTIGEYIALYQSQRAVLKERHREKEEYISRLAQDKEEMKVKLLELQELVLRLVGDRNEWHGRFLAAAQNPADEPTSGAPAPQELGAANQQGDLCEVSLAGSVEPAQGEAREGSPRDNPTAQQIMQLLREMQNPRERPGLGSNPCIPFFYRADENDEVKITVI
UniProt Q8TBA6: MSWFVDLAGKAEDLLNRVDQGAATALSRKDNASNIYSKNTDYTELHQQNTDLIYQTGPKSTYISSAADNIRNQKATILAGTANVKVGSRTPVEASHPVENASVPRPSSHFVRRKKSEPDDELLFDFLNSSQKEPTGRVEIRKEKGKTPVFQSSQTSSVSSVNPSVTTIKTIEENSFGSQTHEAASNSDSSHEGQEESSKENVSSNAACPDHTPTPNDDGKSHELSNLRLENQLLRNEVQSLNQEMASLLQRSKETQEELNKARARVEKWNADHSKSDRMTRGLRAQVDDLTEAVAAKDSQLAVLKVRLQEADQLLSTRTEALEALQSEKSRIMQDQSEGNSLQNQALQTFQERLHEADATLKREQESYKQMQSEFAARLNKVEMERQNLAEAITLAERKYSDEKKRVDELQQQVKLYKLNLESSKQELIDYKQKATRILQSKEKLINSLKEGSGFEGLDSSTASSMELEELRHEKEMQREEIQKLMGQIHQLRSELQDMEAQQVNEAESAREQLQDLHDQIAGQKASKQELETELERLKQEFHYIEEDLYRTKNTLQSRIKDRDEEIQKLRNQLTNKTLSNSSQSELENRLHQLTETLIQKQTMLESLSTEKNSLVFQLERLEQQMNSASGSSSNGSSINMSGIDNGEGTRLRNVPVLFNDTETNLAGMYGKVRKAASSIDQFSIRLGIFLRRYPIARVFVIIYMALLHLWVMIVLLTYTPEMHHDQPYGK

Assays:
Test in all cases: log2 fold change, soluble protein after heating vs DMSO (PISA); higher = thermal stabilisation; K562 cells, 10 uM, 30 min; active = over 0.2 and 3.5 SD of the protein, either way, in both replicates (recomputed)
[1] = compound: C#Cc1cccc(Nc2ncnc3cc(OCCOC)c(OCCOC)cc23)c1 [erlotinib]
In short: (§1)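 K562 cells at 2×10^6 cells/mL were given 10 μM compound for 30 min. Aliquots then went through 3 min of heating across 48°C-58°C, were pooled, and were extracted in PBS with 0.5% NP-40 at 4°C, and the supernatant after 21,000xg for 90 min was quantified by TMTpro 16plex LC-MS/MS with channel sums equalised. Thermal stability relative to control samples, from duplicates, is given as log2 fold change.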

[2] = compound: C/C(=N\NC(=O)C1=CC(=CC=C1)S(=O)(=O)N2CCOCC2)/C3=C(C=CC(=C3)Cl)O
In short: as §1

[3] = compound: C1=CC(=C(C=C1Cl)C2=NC3=NC=CN=C3C(=N2)NC4=CC=NC=C4)F
In short: as §1

[4] = compound: C1=CC(=CC=C1C2=NC3=C(N2)C=C(C=C3)C(=O)N)OC4=CC=C(C=C4)Cl
In short: as §1

[5] = compound: C1=CC2=C(C=CC(=C2)/C=C\3/C(=O)NC(=NCC4=CC=CS4)S3)N=C1
In short: as §1

[6] = compound: C1=CC2=NC=CN=C2C=C1/C=C/3\C(=O)NC(=O)S3
In short: as §1

[7] = compound: C1=CC=C(C=C1)C2=NC(=C(N2)C3=CC=NC=C3)C4=CC(=C(C=C4)Cl)O
In short: as §1

[8] = compound: C1=CC=C2C(=C1)C3=NNC4=CC=CC(=C43)C2=O
In short: as §1

[9] = compound: C1CCN(C1)C(=O)NC2=CC=CC(=C2)NC3=NC=C(C(=N3)NCCC4=CN=CN4)Br
In short: as §1

[10] = compound: C1CN(CCC1(CC2=CC=C(C=C2)Cl)N)C3=NC=NC4=C3C=CN4
In short: as §1

[11] = compound: C1COCCN1CCN2C3=CC=CC=C3N=C2NC(=O)C4=CC(=CC=C4)[N+](=O)[O-] [IRAK-1-4 Inhibitor I]
In short: as §1

[12] = compound: C=CC(=O)N1CCC[C@@H](n2nc(-c3ccc(Oc4ccccc4)cc3)c3c(N)ncnc32)C1 [ibrutinib]
In short: as §1

[13] = compound: CC(=O)c1cnc2ccc(-c3cc(Cl)c(O)c(Cl)c3)nc2c1N[C@H]1CC[C@H](CN(C)C)CC1
In short: as §1

[14] = compound: CC(C)(C)Cn1c(N)nc2ccc(-c3[nH]c(C(C)(C)C)nc3-c3ccc(F)cc3)nc21 [ralimetinib]
In short: as §1

[15] = compound: CC(C)(O)CC(=O)NCCn1ccc2ncnc(Nc3ccc(Oc4cccc(C(F)(F)F)c4)c(Cl)c3)c21
In short: as §1

[16] = compound: CC(C)C1=C2N=C(C=C(N2N=C1)NCC3=CC=CC=C3)NCCCCCCN
In short: as §1

[17] = compound: CC(C)C[C@@H](C=O)NC(=O)[C@H](CC(C)C)NC(=O)[C@H](CC(C)C)NC(=O)OCc1ccccc1
In short: as §1

[18] = compound: CC(C)N(C[C@H]1O[C@@H](n2cnc3c(N)ncnc32)[C@H](O)[C@@H]1O)[C@H]1C[C@@H](CCc2nc3cc(C(C)(C)C)ccc3[nH]2)C1 [pinometostat]
In short: as §1

[19] = compound: CC1=C(C(CC(=O)N1)C2=CC=C(C=C2)C(F)(F)F)C(=O)NC3=C(C=C4C(=C3)C=NN4)F
In short: as §1

[20] = compound: CC1=C(C2=C(C=C1)C(=O)C3=CC=CC=C3N2CCCN)C
In short: as §1

Measured: log2 fold change

GLMN (UniProt Q92990)
inactive: [1] 0.014 | [2] 0.001 | [3] 0.029 | [4] -0.024 | [5] -0.001 | [6] 0.039 | [7] 0.001 | [8] -0.001 | [9] 0.015 | [10] -0.007 | [11] 0.023 | [12] -0.006 | [13] -0.01 | [14] 0.016 | [15] -0.068 | [16] 0.01 | [17] -0.065 | [18] 0.022 | [19] -0.032 | [20] -0.023

GMPR (UniProt P36959)
inactive: [1] -0.056 | [2] 0.047 | [3] 0.047 | [4] 0.051 | [5] -0.01 | [6] -0.016 | [7] -0.022 | [8] -0.037 | [9] -0.012 | [10] 0.02 | [11] 0.007 | [12] 0.038 | [13] 0.006 | [14] -0.069 | [15] -0.019 | [16] -0.001 | [17] -0.041 | [18] -0.02 | [19] -0.01 | [20] -0.03

GOT1 (UniProt P17174)
inactive: [1] 0.004 | [2] -0.016 | [3] -0.016 | [4] -0.024 | [5] -0.002 | [6] -0.005 | [7] -0.012 | [8] 0.017 | [9] 0.002 | [10] 0.041 | [11] 0.034 | [12] -0.001 | [13] 0.028 | [14] -0.044 | [15] 0.01 | [16] 0.05 | [17] -0.02 | [18] -0.069 | [19] -0.012 | [20] 0.02

GLRX5 (UniProt Q86SX6)
inactive: [1] -0.038 | [2] -0.078 | [3] 0.059 | [4] 0.026 | [5] 0.047 | [6] 0.002 | [7] -0.016 | [8] 0.129 | [9] -0.083 | [10] 0 | [11] 0.105 | [12] 0.051 | [13] 0.131 | [14] -0.068 | [15] -0.101 | [16] 0.03 | [17] -0.005 | [18] -0.1 | [19] 0.11 | [20] 0.143

GLB1L2 (UniProt Q8IW92)
inactive: [1] -0.039 | [2] -0.071 | [3] -0.026 | [4] -0.015 | [5] 0.04 | [6] -0.028 | [7] 0.061 | [8] 0.008 | [9] 0.003 | [10] 0.078 | [11] 0.006 | [12] -0.062 | [13] 0.01 | [14] -0.011 | [15] 0.051 | [16] 0.109 | [17] 0.045 | [18] -0.023 | [19] -0.033 | [20] 0.059

GOLGA2 (UniProt Q08379)
inactive: [1] 0.019 | [2] 0.008 | [3] -0.118 | [4] -0.012 | [5] -0.029 | [6] 0.092 | [7] -0.045 | [8] 0.007 | [9] -0.082 | [10] -0.108 | [11] 0.008 | [12] -0.053 | [13] 0.11 | [14] 0.146 | [15] 0.028 | [16] -0.022 | [17] 0.055 | [18] 0.092 | [19] -0.028 | [20] -0.022

GOLGA5 (UniProt Q8TBA6)
inactive: [1] -0.021 | [2] 0.024 | [3] 0.031 | [4] -0.012 | [5] 0.003 | [6] 0.065 | [7] -0.016 | [8] -0.068 | [9] -0.044 | [10] 0.007 | [11] 0.001 | [12] 0.057 | [13] -0.083 | [14] -0.039 | [15] 0.006 | [16] 0.131 | [17] -0.008 | [18] -0.017 | [19] -0.052 | [20] 0.04
